PubChem BioAssay AID1508597 – Cure First, 2020
Shown is a random part of the about 2,100 reagents, under one of the conditions tested. 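Calls flag viability under 80% in either arm, not effects specific to rucaparib; the reference for percent is not stated.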 A reagent listed more than once was tested more than once; the source does not tell the runs apart. Not given: the 100% reference.

Assay: 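Knock-downs altering ovarian cancer cell survival with or without PARP inhibitor rucaparib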 (primary screen)
Cell system: human ovarian carcinoma lines grown from tumours: OCI-P5x (papillary serous) and OCI-C5x (clear cell)
Reagent: siRNA pool against human genes, 1.25 pmol siRNA per well
Time to read-out: 72 h or 96 h, depending on the cell culture
Challenge: rucaparib 20 µM (about IC30) or vehicle, present until read-out
Rucaparib or vehicle: Rucaparib
Cell line: OCI-C5x (clear cell)
Measured: 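Luminescent ATP-based viability assay read 72 or 96 h after transfection, depending on culture, given as normalised percent viability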
Direction: viability, normalised: higher = more viable cells remaining
Active means: 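a well counts as a hit if its normalised viability is under 80 percent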
Meaning of the calls: active = viability under 80%; inactive = viability 80% or more

gene symbol	technical replicate	viability, normalised (%)	call
EIF2AK4 (eukaryotic translation initiation factor 2 alpha kinase 4)	1	120	inactive
EIF2AK4 (eukaryotic translation initiation factor 2 alpha kinase 4)	2	138	inactive
EIF2AK4 (eukaryotic translation initiation factor 2 alpha kinase 4)	3	122	inactive
PCDHB14 (protocadherin beta 14)	1	33.6	active
PCDHB14 (protocadherin beta 14)	2	36.5	active
PCDHB14 (protocadherin beta 14)	3	29.3	active
CLDN15 (claudin 15)	1	45.2	active
CLDN15 (claudin 15)	2	47.7	active
CLDN15 (claudin 15)	3	37.3	active
RAE1 (ribonucleic acid export 1)	1	48.7	active
RAE1 (ribonucleic acid export 1)	2	41.3	active
RAE1 (ribonucleic acid export 1)	3	38.6	active
PARP1 (poly(ADP-ribose) polymerase 1)	1	50.4	active
PARP1 (poly(ADP-ribose) polymerase 1)	1	57.3	active
PARP1 (poly(ADP-ribose) polymerase 1)	2	61.4	active
PARP1 (poly(ADP-ribose) polymerase 1)	2	49.6	active
PARP1 (poly(ADP-ribose) polymerase 1)	3	54.6	active
PARP1 (poly(ADP-ribose) polymerase 1)	3	61.1	active
RABGGTA (Rab geranylgeranyltransferase subunit alpha)	1	50.7	active
RABGGTA (Rab geranylgeranyltransferase subunit alpha)	2	30.5	active
RABGGTA (Rab geranylgeranyltransferase subunit alpha)	3	26.1	active
ATXN7L3 (ataxin 7 like 3)	1	48.3	active
ATXN7L3 (ataxin 7 like 3)	2	44.2	active
ATXN7L3 (ataxin 7 like 3)	3	38.8	active
CTSD (cathepsin D)	1	41	active
CTSD (cathepsin D)	2	44.8	active
CTSD (cathepsin D)	3	44.1	active
MED8 (mediator complex subunit 8)	1	48.4	active
MED8 (mediator complex subunit 8)	2	30.7	active
MED8 (mediator complex subunit 8)	3	38.6	active
PIK3C2G	1	39.4	active
PIK3C2G	2	59.8	active
PIK3C2G	3	47.1	active
STK40 (serine/threonine kinase 40)	1	51	active
STK40 (serine/threonine kinase 40)	2	57.3	active
STK40 (serine/threonine kinase 40)	3	58.7	active
PARP4 (poly(ADP-ribose) polymerase family member 4)	1	67.5	active
PARP4 (poly(ADP-ribose) polymerase family member 4)	1	41.6	active
PARP4 (poly(ADP-ribose) polymerase family member 4)	2	47.5	active
PARP4 (poly(ADP-ribose) polymerase family member 4)	2	37.4	active
PARP4 (poly(ADP-ribose) polymerase family member 4)	3	69.1	active
PARP4 (poly(ADP-ribose) polymerase family member 4)	3	40.2	active

Records above whose gene name begins with R or r (6):
gene symbol	technical replicate	viability, normalised (%)	call
RAE1 (ribonucleic acid export 1)	1	48.7	active
RAE1 (ribonucleic acid export 1)	2	41.3	active
RAE1 (ribonucleic acid export 1)	3	38.6	active
RABGGTA (Rab geranylgeranyltransferase subunit alpha)	1	50.7	active
RABGGTA (Rab geranylgeranyltransferase subunit alpha)	2	30.5	active
RABGGTA (Rab geranylgeranyltransferase subunit alpha)	3	26.1	active
